Laboratory results from the supplement of paper PMC11732987, “Enantioselective OTUD7B fragment discovery through chemoproteomics screening and high-throughput optimisation” (Communications Chemistry, 2025).
The other results are listed elsewhere or left out. The data scatter; read single values as rough.

By UniProt entry, the sequences of proteins in these tests, tags left out. Where a name states a change or a piece, a line headed by the entry shows the natural chain unless it says otherwise. Residues count along the entry.
UniProt P07948: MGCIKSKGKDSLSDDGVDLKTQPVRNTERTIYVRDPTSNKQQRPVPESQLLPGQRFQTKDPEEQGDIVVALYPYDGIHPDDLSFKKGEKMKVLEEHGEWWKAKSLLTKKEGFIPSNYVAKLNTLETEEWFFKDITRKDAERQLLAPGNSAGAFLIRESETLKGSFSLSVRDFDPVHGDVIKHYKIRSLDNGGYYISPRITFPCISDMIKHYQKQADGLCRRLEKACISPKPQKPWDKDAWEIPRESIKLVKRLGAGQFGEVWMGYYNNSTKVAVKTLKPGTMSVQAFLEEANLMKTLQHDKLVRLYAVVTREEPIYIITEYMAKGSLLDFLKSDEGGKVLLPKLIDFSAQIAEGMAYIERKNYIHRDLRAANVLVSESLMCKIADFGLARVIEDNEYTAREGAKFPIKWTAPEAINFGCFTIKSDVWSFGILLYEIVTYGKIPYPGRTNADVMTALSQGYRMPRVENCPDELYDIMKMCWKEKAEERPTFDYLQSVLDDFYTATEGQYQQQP
UniProt Q05BQ5: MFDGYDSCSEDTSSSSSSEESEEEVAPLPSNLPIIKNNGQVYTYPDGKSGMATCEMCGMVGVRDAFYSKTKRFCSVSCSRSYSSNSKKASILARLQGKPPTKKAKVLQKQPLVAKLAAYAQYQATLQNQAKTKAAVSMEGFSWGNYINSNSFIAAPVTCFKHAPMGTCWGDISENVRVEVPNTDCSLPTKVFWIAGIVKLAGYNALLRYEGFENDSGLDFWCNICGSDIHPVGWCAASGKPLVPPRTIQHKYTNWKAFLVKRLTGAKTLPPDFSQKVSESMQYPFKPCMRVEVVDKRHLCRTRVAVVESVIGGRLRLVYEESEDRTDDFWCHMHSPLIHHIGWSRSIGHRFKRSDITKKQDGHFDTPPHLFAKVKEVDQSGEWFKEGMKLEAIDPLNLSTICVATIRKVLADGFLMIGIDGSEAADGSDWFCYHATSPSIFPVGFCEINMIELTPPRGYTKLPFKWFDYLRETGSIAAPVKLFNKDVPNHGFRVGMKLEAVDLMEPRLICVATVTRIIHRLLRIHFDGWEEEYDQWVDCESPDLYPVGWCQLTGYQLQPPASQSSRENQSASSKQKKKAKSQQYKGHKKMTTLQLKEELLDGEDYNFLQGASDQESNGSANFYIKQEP
UniProt O43318: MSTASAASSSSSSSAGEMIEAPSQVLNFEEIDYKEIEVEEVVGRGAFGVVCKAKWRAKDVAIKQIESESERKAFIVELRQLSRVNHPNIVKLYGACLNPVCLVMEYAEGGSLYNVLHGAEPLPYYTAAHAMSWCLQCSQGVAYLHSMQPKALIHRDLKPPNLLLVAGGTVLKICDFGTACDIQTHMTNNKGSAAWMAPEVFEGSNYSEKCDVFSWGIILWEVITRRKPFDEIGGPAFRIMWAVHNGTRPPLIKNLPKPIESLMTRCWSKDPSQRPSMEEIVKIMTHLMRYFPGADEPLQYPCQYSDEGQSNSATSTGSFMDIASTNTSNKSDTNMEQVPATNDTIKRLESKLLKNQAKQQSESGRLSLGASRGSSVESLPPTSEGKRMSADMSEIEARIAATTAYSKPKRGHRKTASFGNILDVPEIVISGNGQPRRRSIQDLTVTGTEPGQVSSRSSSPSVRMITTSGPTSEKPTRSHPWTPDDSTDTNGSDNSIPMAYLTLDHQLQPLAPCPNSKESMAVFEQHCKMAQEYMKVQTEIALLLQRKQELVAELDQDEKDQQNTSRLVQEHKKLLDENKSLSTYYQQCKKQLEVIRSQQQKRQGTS
UniProt Q9BQ69: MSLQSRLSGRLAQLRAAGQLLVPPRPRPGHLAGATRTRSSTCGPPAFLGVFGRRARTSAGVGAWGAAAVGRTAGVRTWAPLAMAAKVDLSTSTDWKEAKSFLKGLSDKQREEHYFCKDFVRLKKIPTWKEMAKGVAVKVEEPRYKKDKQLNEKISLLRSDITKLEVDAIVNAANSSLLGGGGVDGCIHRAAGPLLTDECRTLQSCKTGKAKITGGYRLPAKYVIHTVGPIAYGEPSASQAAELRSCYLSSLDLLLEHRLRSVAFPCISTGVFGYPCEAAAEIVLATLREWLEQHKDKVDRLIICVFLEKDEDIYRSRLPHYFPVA
UniProt Q6UWE0: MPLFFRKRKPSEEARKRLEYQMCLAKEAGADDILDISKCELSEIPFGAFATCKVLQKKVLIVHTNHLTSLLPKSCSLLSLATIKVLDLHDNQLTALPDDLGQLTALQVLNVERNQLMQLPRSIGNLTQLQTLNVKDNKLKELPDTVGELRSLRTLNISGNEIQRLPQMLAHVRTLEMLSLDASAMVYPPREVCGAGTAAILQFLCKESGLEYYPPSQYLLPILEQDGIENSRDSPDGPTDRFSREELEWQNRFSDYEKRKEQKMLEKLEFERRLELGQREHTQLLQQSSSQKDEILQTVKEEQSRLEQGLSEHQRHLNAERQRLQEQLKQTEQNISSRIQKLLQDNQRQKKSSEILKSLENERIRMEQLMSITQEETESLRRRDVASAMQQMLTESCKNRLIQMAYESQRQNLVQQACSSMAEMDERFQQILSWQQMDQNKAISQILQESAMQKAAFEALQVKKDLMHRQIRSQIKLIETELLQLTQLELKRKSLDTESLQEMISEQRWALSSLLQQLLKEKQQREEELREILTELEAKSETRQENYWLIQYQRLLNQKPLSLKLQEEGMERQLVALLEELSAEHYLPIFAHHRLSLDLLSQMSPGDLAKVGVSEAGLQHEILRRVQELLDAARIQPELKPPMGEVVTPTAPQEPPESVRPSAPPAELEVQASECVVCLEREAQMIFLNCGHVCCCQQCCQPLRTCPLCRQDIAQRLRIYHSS
UniProt P25205: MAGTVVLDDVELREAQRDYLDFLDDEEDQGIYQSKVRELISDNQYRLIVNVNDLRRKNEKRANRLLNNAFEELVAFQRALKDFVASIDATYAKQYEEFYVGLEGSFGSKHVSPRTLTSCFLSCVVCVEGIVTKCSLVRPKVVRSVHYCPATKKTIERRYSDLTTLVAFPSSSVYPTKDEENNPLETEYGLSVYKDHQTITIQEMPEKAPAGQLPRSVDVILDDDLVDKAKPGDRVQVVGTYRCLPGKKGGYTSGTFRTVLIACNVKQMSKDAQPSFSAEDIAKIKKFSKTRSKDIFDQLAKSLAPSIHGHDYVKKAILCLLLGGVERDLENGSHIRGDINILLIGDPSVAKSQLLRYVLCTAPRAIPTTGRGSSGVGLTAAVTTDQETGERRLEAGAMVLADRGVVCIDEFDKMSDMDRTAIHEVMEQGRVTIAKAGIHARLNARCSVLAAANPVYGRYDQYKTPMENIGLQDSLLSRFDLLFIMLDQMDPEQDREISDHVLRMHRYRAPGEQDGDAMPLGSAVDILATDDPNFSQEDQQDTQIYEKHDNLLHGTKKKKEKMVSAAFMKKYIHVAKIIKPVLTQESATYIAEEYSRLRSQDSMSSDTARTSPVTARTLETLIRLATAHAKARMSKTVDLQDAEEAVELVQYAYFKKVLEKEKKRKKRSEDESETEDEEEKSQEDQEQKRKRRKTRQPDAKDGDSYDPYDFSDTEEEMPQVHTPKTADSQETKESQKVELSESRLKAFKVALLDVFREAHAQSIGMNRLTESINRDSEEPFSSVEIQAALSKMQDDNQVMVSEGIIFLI
UniProt P33992: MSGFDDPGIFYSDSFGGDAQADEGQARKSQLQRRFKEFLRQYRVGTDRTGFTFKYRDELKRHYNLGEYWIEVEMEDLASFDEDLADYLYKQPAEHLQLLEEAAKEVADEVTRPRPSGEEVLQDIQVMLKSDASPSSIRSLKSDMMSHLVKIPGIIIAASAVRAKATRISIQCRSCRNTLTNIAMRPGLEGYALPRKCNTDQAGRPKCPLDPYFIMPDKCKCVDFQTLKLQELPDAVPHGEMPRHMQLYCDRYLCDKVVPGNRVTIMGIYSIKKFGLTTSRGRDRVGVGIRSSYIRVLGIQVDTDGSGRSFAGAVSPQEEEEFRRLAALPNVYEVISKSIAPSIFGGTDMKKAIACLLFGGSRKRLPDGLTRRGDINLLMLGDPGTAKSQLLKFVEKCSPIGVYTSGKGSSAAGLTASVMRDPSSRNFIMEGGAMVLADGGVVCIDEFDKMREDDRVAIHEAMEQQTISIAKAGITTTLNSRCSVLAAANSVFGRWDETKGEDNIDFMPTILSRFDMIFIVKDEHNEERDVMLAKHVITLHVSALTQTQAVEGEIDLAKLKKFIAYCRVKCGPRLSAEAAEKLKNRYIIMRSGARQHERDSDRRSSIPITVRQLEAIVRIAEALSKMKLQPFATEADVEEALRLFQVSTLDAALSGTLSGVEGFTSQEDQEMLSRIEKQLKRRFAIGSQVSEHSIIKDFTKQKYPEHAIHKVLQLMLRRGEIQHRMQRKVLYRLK
UniProt Q9NXL9, 866-886: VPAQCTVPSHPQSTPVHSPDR
UniProt Q9BPZ7: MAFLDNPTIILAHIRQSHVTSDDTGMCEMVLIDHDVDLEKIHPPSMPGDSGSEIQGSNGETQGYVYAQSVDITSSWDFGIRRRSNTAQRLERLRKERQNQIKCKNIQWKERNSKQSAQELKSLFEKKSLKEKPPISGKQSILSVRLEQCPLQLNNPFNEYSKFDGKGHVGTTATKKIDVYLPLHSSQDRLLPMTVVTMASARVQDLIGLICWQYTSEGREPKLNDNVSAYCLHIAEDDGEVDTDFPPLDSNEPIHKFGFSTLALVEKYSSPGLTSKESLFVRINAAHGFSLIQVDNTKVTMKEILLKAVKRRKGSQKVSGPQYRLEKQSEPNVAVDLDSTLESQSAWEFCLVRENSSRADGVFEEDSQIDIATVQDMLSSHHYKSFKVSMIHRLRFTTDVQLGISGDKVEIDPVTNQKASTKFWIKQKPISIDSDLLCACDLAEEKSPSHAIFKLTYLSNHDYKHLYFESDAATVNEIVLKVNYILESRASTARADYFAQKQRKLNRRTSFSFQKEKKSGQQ
UniProt Q9BX40, 289-314: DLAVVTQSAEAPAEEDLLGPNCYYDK
UniProt Q15048, 146-168: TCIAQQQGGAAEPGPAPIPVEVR
UniProt Q96CN5: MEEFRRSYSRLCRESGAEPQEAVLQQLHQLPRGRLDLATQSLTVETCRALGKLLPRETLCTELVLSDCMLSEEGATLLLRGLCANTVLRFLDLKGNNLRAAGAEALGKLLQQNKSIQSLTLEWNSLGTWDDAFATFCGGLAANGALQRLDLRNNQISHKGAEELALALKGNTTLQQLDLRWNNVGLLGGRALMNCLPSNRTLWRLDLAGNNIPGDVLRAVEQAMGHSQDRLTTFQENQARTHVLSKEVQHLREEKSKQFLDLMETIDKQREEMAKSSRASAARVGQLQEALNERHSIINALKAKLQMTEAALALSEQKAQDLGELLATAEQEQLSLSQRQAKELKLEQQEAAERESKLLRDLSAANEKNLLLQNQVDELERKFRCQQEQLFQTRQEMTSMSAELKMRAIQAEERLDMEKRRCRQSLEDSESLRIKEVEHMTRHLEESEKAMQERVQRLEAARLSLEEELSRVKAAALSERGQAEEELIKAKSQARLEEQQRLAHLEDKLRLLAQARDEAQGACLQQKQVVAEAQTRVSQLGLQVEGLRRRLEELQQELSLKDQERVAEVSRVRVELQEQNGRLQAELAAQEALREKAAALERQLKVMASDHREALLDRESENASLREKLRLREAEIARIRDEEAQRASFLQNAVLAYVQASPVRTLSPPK
UniProt P43243: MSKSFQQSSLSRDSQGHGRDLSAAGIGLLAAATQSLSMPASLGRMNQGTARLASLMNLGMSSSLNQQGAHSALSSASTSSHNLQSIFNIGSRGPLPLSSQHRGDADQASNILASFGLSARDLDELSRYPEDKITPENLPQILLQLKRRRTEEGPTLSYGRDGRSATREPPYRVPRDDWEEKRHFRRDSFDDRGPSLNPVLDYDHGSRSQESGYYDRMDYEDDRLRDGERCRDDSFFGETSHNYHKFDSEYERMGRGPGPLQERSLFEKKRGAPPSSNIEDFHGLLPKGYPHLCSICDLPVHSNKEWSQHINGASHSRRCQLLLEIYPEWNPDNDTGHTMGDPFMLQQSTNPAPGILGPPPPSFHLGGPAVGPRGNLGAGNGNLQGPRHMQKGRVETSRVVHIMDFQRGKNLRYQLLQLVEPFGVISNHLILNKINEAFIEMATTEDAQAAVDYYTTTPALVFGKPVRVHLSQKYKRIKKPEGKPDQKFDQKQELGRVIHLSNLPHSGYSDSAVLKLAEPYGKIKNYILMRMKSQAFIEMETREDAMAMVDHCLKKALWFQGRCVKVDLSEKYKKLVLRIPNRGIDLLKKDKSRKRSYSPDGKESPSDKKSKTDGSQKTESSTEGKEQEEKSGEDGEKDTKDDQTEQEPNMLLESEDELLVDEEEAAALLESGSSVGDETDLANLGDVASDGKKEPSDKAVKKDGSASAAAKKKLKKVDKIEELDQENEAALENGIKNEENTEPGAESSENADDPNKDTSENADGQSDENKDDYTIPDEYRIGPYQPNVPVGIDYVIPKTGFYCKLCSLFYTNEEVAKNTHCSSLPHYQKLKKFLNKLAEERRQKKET

Columns and labels:
[1] = compound: ClCC(=O)N[C@@H]1CCCc2ccccc12; experiment: log2 mean competition ratio of IA-DTB cysteine labelling (DMSO/compound) (log2 ratio); higher = stronger cysteine engagement by compound; details: treatment time: 4 h, cell line lysate: HEK293T
Protocol: (§1)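 IA-DTB competitive cysteine chemoproteomics in HEK293T RIPA lysate. Lysates were treated with compound 29 or 30 at 50 or 200 µM for 4 h, then IA-DTB (500 µM, 1 h), trypsin-digested, NeutrAvidin-enriched and analysed by diaPASEF. Competition ratio = intensity DMSO / intensity compound (n=4 treated, n=64 DMSO); binding: mean log2 CR ≥ 1 and p ≤ 0.05 plus QC filters. Target is the cysteine site.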

[2] = compound: ClCC(=O)N[C@H]1CCCc2ccccc12; experiment: as above; details: treatment time: 4 h, cell line lysate: HEK293T
Protocol: as §1

Row | Target | log2 mean competition ratio ([1]; 50 µM) | log2 mean competition ratio ([1]; 200 µM) | log2 mean competition ratio ([2]; 50 µM) | log2 mean competition ratio ([2]; 200 µM)
1 | LYN C381 (UniProt P07948) | 0.0159 | 0.309 | -0.282 | 0.176
2 | MBTD1 C185 (UniProt Q05BQ5) | -0.188 | -0.166 | 0.0725 | -0.368
3 | MAP3K7 C527 (UniProt O43318) | 0.0177 | 0.568 | -0.0202 | 0.392
4 | MACROD1 C116 (UniProt Q9BQ69) | -0.0781 | -0.0695 | 0.104 | -0.172
5 | MAP3K20 C242 (UniProt Q9NYL2) | -0.222 | -0.142 | -0.317 | -0.145
6 | MBNL3 C44 | -0.159 | -0.52 | -0.0227 | -0.15
7 | LRSAM1 C418 (UniProt Q6UWE0) | -0.227 | 0.538 | 0.107 | 0.415
8 | LRRC57 C82 (UniProt Q8N9N7) | -0.199 | -0.151 | -0.608 | -0.0686
9 | LUZP1 C969 (UniProt Q86V48) | 0.439 | 0.238 | 0.292 | 0.228
10 | MCM3 C148 (UniProt P25205) | 0.202 | -0.189 | 0.342 | -0.228
11 | MACF1 C666 | 0.108 | -0.138 | 0.402 | -0.182
12 | MCM5 C249 (UniProt P33992) | -0.038 | 0.401 | -0.397 | 0.29
13 | MACF1 C986 | -0.126 | -0.0315 | -0.298 | -0.0542
14 | MCM9 C870 (UniProt Q9NXL9) | 0.369 | -0.09 | 0.00356 | -0.406
15 | MAPKAP1 C149 (UniProt Q9BPZ7) | 1.04 | -0.0608 | 0.57 | -0.67
16 | LSM14B C310 (UniProt Q9BX40) | -0.333 | -0.0188 | 0.237 | 0.125
17 | LRRC14 C147 (UniProt Q15048) | -0.389 | 0.149 | -0.11 | -0.108
18 | MACF1 C5346 | -0.00108 | 0.345 | -0.475 | 0.0868
19 | MARCHF5 C33 (UniProt Q9NX47) | -0.155 | -0.0396 | 0.204 | -0.26
20 | LYPLA2 C171 (UniProt O95372) | -0.328 | 0.258 | -0.421 | 0.173
21 | LRRC45 C385 (UniProt Q96CN5) | 0.191 | -0.0519 | 0.144 | 0.0192
22 | MBOAT7 C280 (UniProt Q96N66) | -0.0596 | -0.247 | 0.254 | -0.267
23 | MAK16 C39 (UniProt Q9BXY0) | 0.159 | 0.145 | 0.0186 | 0.088
24 | MATR3 C806 (UniProt P43243) | 0.273 | -0.0586 | -0.0345 | -0.0531
25 | MCM9 C529 (UniProt Q9NXL9) | 0.331 | 0.416 | 0.281 | 0.115

A few values from above:
LRSAM1 C418 (UniProt Q6UWE0) | log2 mean competition ratio ([1]; 200 µM): 0.538
LRRC45 C385 (UniProt Q96CN5) | log2 mean competition ratio ([1]; 50 µM): 0.191
